Source: article PMC5366912
Results are given in words; binding and its absence hold for the method and conditions named. Binding seen in cells or lysates may run through a third protein. Some binding calls cover weakened binding; strength is not graded here.

Amino acid sequences for entries named in this document (tags omitted).
UniProt P35579: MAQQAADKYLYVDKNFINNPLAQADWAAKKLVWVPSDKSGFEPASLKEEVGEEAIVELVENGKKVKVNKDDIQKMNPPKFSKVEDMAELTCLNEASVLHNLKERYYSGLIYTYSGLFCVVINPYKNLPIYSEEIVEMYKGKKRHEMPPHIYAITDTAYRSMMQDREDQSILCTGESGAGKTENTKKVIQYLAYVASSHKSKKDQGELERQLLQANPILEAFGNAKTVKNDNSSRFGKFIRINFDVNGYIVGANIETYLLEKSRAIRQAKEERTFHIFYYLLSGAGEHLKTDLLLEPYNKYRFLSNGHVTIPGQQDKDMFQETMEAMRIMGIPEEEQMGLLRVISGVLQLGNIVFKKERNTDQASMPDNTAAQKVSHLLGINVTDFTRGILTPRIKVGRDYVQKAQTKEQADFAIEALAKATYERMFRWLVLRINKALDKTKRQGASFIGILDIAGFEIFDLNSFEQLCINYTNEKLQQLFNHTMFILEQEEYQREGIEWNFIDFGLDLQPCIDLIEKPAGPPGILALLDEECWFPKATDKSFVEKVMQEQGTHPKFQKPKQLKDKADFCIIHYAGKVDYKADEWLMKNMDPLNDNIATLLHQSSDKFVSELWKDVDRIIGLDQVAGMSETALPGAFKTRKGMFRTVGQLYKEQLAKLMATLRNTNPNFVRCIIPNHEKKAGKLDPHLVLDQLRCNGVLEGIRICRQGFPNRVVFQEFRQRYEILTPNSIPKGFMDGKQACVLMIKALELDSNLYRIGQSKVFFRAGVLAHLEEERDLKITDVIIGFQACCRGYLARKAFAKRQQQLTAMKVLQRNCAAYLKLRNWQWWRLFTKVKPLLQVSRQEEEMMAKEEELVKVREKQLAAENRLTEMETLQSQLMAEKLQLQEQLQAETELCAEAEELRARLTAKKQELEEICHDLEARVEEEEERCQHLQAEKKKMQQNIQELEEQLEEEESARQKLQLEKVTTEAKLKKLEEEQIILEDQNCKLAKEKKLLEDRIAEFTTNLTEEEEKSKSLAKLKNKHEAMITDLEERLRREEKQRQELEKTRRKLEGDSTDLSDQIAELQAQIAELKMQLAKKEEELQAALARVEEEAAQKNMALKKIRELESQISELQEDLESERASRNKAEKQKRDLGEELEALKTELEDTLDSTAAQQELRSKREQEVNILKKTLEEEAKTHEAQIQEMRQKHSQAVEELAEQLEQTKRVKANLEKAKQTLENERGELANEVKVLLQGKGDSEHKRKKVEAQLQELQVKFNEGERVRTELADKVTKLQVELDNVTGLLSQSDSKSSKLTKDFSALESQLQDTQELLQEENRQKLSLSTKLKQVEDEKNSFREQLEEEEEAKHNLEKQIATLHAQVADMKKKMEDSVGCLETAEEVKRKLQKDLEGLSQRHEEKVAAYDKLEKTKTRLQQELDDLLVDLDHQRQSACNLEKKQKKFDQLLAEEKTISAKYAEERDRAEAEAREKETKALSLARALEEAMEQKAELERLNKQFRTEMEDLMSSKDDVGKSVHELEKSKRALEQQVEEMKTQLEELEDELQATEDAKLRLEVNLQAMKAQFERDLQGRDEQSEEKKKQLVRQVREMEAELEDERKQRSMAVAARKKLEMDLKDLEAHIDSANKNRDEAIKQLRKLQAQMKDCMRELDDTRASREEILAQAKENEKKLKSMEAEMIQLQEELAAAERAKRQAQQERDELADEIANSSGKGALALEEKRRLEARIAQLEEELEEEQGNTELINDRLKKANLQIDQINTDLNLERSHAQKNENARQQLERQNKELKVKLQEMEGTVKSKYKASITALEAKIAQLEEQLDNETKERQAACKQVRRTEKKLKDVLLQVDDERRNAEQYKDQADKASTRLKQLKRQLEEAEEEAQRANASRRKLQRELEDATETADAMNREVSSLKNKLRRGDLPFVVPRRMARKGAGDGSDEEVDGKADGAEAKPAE

Target: T1, C9ORF135 protein (chromosome 9 open reading frame 135), isoform 1 (human (endogenous in hESCs)) (UniProt Q5VTT2)
T1 sequence: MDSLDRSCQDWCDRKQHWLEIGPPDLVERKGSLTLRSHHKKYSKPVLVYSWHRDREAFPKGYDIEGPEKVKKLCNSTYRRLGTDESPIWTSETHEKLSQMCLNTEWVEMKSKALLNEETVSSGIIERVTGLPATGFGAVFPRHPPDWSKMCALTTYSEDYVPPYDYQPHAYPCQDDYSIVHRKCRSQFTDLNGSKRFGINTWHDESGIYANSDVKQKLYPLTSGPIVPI
Test: co-IP; hESC lysate precipitated with anti-C9ORF135 (control: normal IgG), blotted with myosin IIA antibody; input 10% lysate

myosin-9 (MYH9, myosin-IIA) (from UniProt P35579 1-1960)
binding: binds
